Results: US5629011A, “Composition for nasal administration” (priority 1992, dated 1997)

Tests used:
[1] = after i.v. or nasal morphine-6-glucuronide; limit of detection 1 ng/ml
Experimental: Biomed. Appl. 230, 427. […] The limit of quantification of the method is 1 ng/ml for a 0.5 ml plasma sample and the assay is linear over the range of 1 to 1200 ng/ml drug concentration.

[2] = cited from earlier work

In the case of `CN1CC[C@]23c4c5ccc(O)c4O[C@H]2[C@@H](O)C=C[C@H]3[C@H]1C5` [morphine], the “morphine in plasma samples” value [1] is listed as “No morphine was detected”, the “more typical therapeutic levels in plasma” value ([2]; more typically) is listed as 20 to 100 ng/mL and the “usual therapeutic levels in plasma” value ([2]; usual) is listed as 1 to 500 ng/mL.
